# This is one part of the list. Shown are side measurements of this screen, not its main read-out; they come without a call. The list favours compounds with an active or inconclusive main result. The note in brackets gives the kind of curve behind each potency; many fits are weak.
# Assay: qHTS Assay for Lipid Storage Modulators in Drosophila S3 Cells;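 as to cell number change: cells counted by Cell Tracker Red CMTPX staining in the red channel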
# Conditions: BODIPY lipid droplet fluorescence, 18-24 h; for cell number change: measured here: cell count max response, cells fed with added oleic acid
# Method in brief: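 Drosophila S3 cells got compounds at several concentrations plus oleic acid (400 uM solution). Laser-scanning cytometry with 488 nm excitation read lipid droplets at 500-530 nm and cells at 575-640 nm. Percent activity was relative to 20 uM Triacsin C.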
# [1] = measured here: lipid fluorescence (Fed channel) AC50, cells fed with added oleic acid
# [2] = measured here: cell number channel AC50, cells fed with added oleic acid
Structure (SMILES),cell number change,AC50 [1],AC50 [2]
COC(=O)C(C(=O)OC)c1ccc(NC(=O)c2cccc(Cl)c2)cc1,8.31%,"16.4 µM [falling, partial curve]",–
O=C(NCc1ccco1)c1cc(-c2ccncc2)nc2ccccc12,-10.2%,–,–
O=C(O)c1cc(-c2ccc(Br)s2)nc2ccccc12,7.91%,"0.82 µM [rising, full curve]",–
O=C(Cn1c(=O)c2ccccc2n(CC(=O)N2CCCCC2)c1=O)N1CCCCC1,38.9%,"2.31 µM [rising, partial curve, poor fit]","29.1 µM [rising, single point]"
COC(=O)c1ccccc1NC(=O)N1CCN(C/C=C/c2ccccc2)CC1,18.8%,"23.1 µM [falling, single point]",–
COc1ccccc1N1CCN(C(=O)CCc2ccc(S(=O)(=O)NC(C)C)cc2)CC1,-1.76%,"0.517 µM [falling, single point]",–
CCN(CC)S(=O)(=O)c1cccc(-c2nnc(SC(C)C#N)n2Cc2ccccc2)c1 (stereo not given),24.3%,–,"1.84 µM [rising, full curve, poor fit]"
COc1ccc(/C=C2\CCc3ccccc3C2=O)cc1Cn1nc(C)cc1C,–,"0.58 µM [rising, single point]","2.06 µM [rising, partial curve]"
COCCn1c(N)c(NCc2ccccc2)c(=O)[nH]c1=O,13.7%,"2.06 µM [rising, full curve, poor fit]",–
C=CCn1c(O)c(N=Nc2ccccc2O)c2ccccc21,-77.5%,–,"14.6 µM [falling, partial curve]"
CC1=CC(=O)N(c2ccc(C)cc2)C1c1ccc(Cl)cc1 (stereo not given),-18.7%,"0.58 µM [falling, single point]",–
CC(Sc1nc2ccccc2c(=O)[nH]1)C(=O)O (stereo not given),-60.1%,"29.1 µM [falling, single point]","3.66 µM [falling, full curve]"
Cc1cc(C(=O)N2CCN(c3ccccc3O)CC2)c(C)o1,40.1%,"29.1 µM [rising, partial curve]","29.1 µM [rising, single point]"
COc1ccc(C=O)cc1OC(=O)C1(C)Cc2ccccc2C(=O)O1 (stereo not given),18.2%,"0.82 µM [rising, full curve, poor fit]",–
CC(CCc1ccccc1)NC(=O)c1ccc(F)cc1 (stereo not given),10.1%,"0.0651 µM [rising, full curve, poor fit]",–
Cc1csc(=O)n1CCC(=O)OCC(=O)NNC(=O)c1ccc(Br)cc1,-2.88%,"0.058 µM [rising, full curve, poor fit]",–
COCCCn1c2nc3ccccc3nc2c2c(=O)n(CC3CCCO3)cnc21 (stereo not given),6.32%,"6.51 µM [rising, single point]",–
COc1ccc2sc(C)nc2c1NC(C)=O,5.12%,"1.3 µM [rising, full curve]",–
COc1cc(OC)c(C2Oc3nc(SC)nnc3-c3ccccc3N2C(C)=O)cc1OC (stereo not given),1.82%,–,–

Structure (SMILES),cell number change,AC50 [1],AC50 [2]
Cn1nc(OCc2ccccc2)ccc1=O,-39.3%,"32.6 µM [falling, single point]","29.1 µM [falling, single point]"
Cc1ccc(S(=O)(=O)N2CCOCC2)cc1N/N=C(\C#N)c1nc2ccccc2[nH]1,-23.7%,–,–
COc1cc2cc(CN(C(=O)Nc3ccccc3)C3CCCC3)c(=O)[nH]c2cc1OC,37.2%,"29.1 µM [rising, single point]","29.1 µM [rising, single point]"
Nc1oc2ccc(F)cc2c(=O)c1C=O,-0.459%,"29.1 µM [rising, single point]",–
COCCN(C(=O)c1cc2c(s1)CCCCC2)c1c(N)n(CC(C)C)c(=O)[nH]c1=O,16.9%,"0.651 µM [falling, full curve]",–
CCCCOc1ccccc1NC(=O)c1ccco1,18.7%,"2.31 µM [rising, partial curve]","0.206 µM [rising, full curve, poor fit]"
COc1ccc(C(=O)Nc2cccc(OC(=O)c3ccc(C)c(C)c3)c2)cc1,-21.2%,"16.4 µM [falling, single point]",–
C/C(=N/NS(=O)(=O)c1ccccc1)c1ccc(NC(=O)C(F)(F)F)cc1,19.3%,–,–
CCOc1ccccc1OCC(=O)NNC(=O)Cn1cnc2c1c(=O)n(C)c(=O)n2C,-28.6%,"3.66 µM [falling, full curve]","1.46 µM [falling, full curve, poor fit]"
Cc1ccc(N=Cc2c(O)c3ccccc3oc2=O)c(C)c1,–,"29.1 µM [rising, single point]",–
COc1ccc(-n2c(-c3ccc(Cl)cc3)c[nH]c2=S)cc1,112%,–,"23.1 µM [rising, partial curve]"
COc1cccc(C(C(=O)NC2CCCC2)N(Cc2cccnc2)C(=O)Cc2cccs2)c1 (stereo not given),0.451%,–,–
O=C(Nc1cccc(Cl)c1)Nc1nnc(-c2ccncc2)s1,–,"0.092 µM [falling, full curve, poor fit]","3.66 µM [falling, partial curve, poor fit]"
Cc1ccc(CNS(=O)(=O)c2ccc3oc(C(=O)O)c(C)c3c2)cc1,-15.3%,–,–
O=C(c1ccc2c(c1)CCN2S(=O)(=O)c1ccccc1)N1CCN(c2ccccc2)CC1,-2.75%,"0.116 µM [rising, full curve, poor fit]",–
O=C(NCCCN1CCCC1=O)c1cccc(S(=O)(=O)Nc2ccc(Br)cc2)c1,80%,–,"29.1 µM [rising, single point]"
COc1ccc(CNCCC(c2ccc(OC(C)C)cc2)c2ccccc2OC)cc1 (stereo not given),-60.4%,"32.6 µM [falling, partial curve, poor fit]","13 µM [falling, partial curve]"
CC1=NN(c2cccc(F)c2)C(=O)/C1=C/c1ccc(N(C)C)cc1,-22.2%,"0.366 µM [falling, partial curve, poor fit]",–

# Arranged by formula weight (ascending): some entries from above.
Structure (SMILES),cell number change,AC50 [1],AC50 [2]
CC1=NN(c2cccc(F)c2)C(=O)/C1=C/c1ccc(N(C)C)cc1,-22.2%,"0.366 µM [falling, partial curve, poor fit]",–
O=C(O)c1cc(-c2ccc(Br)s2)nc2ccccc12,7.91%,"0.82 µM [rising, full curve]",–
CCN(CC)S(=O)(=O)c1cccc(-c2nnc(SC(C)C#N)n2Cc2ccccc2)c1 (stereo not given),24.3%,–,"1.84 µM [rising, full curve, poor fit]"
